Results are given in words; binding and its absence hold for the method and conditions named. Binding seen in cells or lysates may run through a third protein. Some entries that bind do so weakly or less than the wild type.
What was measured:
[1] = target: androgen receptor splice variant 7 (AR variant-7) (human (endogenous in VCaP16)) (UniProt P10275); experiment: co-IP
[2] = target: HOXB13 (human (endogenous in VCaP16)) (UniProt Q92826); experiment: co-IP

The chains behind the UniProt entries cited, without tags or fusion partners. Where a name states a change or a piece, a line headed by the entry shows the natural chain unless it says otherwise. A line that says so, or that is headed by a name, gives the form on record, which may keep a tag or linker.
androgen receptor splice variant 7 (AR variant-7) (human (endogenous in VCaP16)) (P10275-3, form named): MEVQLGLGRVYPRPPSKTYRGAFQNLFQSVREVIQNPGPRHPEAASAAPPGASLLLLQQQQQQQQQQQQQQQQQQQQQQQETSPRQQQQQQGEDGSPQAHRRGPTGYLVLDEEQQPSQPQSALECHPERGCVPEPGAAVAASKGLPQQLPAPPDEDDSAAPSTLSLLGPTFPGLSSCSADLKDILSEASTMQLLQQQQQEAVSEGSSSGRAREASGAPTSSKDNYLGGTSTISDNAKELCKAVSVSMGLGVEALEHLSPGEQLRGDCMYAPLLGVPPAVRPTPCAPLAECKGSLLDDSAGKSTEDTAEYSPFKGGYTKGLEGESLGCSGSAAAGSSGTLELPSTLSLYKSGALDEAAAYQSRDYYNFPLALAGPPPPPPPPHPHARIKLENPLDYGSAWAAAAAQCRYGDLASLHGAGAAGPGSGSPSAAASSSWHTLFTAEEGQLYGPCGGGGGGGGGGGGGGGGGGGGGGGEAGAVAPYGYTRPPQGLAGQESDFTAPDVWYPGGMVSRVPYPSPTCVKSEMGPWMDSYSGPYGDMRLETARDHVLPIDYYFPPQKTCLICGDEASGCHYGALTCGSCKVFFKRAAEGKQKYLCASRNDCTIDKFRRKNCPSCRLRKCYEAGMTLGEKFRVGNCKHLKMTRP
UniProt Q92826: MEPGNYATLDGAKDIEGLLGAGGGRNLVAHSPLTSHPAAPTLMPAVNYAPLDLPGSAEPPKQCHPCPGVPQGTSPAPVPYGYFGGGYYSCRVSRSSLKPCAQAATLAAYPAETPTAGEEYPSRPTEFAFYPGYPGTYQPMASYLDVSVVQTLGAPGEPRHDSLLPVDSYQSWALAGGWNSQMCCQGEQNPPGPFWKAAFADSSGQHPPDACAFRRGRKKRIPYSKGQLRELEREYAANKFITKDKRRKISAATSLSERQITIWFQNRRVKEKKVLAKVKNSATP
UniProt P51532: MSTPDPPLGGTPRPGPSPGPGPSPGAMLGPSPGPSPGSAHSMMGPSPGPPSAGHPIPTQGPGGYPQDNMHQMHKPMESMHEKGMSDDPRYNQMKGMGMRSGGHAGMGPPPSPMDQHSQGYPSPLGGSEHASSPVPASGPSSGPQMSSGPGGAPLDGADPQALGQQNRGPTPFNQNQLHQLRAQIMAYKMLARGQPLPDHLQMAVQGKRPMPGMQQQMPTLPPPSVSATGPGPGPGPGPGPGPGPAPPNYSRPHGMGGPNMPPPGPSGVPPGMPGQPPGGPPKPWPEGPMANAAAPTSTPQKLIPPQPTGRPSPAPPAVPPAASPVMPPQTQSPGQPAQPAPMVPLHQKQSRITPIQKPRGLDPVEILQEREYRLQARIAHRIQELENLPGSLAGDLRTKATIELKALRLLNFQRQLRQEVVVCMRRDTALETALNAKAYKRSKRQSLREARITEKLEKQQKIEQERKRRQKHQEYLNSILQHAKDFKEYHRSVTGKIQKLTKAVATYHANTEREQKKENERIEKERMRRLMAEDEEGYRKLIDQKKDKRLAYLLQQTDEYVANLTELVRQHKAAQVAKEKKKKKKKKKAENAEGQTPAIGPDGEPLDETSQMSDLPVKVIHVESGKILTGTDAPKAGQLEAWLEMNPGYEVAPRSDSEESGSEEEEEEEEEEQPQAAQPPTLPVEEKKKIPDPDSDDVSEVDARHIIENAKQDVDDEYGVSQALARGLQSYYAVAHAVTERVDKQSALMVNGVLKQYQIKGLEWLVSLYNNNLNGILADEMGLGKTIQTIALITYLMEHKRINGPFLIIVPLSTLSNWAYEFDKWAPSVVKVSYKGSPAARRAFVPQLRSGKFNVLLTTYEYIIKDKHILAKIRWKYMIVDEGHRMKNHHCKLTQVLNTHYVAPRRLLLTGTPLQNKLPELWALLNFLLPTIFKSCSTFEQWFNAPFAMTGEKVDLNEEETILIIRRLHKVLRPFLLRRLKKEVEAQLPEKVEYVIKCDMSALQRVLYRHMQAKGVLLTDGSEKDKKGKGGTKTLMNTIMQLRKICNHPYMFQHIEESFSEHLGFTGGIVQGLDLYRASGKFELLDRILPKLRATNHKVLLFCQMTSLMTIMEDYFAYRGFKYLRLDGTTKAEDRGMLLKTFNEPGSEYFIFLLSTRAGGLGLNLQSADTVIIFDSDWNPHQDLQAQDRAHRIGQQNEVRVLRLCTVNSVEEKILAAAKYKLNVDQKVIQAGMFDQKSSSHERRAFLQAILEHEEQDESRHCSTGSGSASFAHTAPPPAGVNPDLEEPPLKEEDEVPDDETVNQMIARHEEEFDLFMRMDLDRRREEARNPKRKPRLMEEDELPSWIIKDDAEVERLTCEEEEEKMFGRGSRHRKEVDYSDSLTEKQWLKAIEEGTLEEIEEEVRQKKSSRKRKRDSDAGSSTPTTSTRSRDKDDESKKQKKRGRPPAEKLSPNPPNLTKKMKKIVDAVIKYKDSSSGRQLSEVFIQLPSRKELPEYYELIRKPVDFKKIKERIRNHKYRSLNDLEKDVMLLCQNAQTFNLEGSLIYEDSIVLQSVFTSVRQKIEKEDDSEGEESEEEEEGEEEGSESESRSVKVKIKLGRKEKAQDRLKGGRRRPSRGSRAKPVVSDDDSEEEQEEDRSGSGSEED

Substance | binding [1] | binding [2]
BRG1 (from UniProt P51532 1-1647) | binds | 
androgen receptor splice variant 7 (AR variant-7) (from UniProt P10275-3 1-644) |  | binds
HOXB13 (from UniProt Q92826 1-284) | binds | 
